Test results published in article PMC8382196.
No constants are given. Whether binding was seen depends on the method and setting. Binding seen in cells or lysates may run through a third protein. Some results given as binding are weak or reduced against the parent protein; the word gives no strength.

Amino acid sequences for entries named in this document (tags omitted).
UniProt B3VKG9: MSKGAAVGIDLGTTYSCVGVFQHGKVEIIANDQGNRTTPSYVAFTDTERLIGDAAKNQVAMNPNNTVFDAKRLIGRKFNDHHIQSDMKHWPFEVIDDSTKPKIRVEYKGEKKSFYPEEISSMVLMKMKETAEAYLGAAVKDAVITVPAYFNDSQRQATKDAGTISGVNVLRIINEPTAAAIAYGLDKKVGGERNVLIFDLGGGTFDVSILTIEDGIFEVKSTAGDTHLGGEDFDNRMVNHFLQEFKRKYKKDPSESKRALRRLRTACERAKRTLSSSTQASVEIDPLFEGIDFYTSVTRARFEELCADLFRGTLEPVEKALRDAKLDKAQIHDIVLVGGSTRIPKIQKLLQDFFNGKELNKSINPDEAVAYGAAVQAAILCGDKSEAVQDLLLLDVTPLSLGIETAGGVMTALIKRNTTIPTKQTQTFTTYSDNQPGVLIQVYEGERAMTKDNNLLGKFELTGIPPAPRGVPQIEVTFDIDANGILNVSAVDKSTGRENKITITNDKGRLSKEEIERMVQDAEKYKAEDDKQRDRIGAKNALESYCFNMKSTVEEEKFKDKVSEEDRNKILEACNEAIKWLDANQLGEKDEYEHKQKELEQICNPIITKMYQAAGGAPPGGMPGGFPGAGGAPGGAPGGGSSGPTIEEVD
UniProt A0A0F7W424: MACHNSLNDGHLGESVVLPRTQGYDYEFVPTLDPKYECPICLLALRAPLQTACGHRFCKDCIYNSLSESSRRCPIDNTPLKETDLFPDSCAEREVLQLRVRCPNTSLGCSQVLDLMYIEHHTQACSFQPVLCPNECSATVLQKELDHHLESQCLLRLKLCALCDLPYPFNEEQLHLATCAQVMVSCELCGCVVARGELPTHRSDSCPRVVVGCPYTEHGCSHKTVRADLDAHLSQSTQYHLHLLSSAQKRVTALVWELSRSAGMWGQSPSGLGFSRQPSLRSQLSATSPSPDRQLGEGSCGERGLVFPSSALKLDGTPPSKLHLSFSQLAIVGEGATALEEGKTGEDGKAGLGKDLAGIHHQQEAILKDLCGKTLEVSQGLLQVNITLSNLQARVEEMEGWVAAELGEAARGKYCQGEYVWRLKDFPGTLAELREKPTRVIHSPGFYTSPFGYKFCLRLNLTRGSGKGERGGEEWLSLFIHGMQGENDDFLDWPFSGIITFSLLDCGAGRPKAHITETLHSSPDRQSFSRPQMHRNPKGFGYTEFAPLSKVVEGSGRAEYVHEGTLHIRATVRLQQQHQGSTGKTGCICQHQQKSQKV

Legend:
[1] = target: heat shock protein 70 (Scylla paramamosain (endogenous in mud crab hemocytes)) (UniProt B3VKG9); assay: co-IP; mud crab hemocyte lysate, Co-IP with anti-HSP70 IgG, anti-TRAF6 IgG or anti-Ecsit IgG on Protein G-agarose beads, 4°C overnight, Western blot of the IP products; also crabs challenged with Vp, Vp+Exosome-PBS or Vp+Exosome-Vp before the Co-IP
[2] = target: TNF receptor associated factor 6 (Scylla paramamosain (endogenous in mud crab hemocytes)); assay: as above

TNF receptor associated factor 6 (from UniProt A0A0F7W424 1-598)
binding [1]: binds

heat shock protein 70 (from UniProt B3VKG9 1-650)
binding [2]: binds
